Test [1] addresses GFP-eIF4E3_A (human) (UniProt Q8N5X7). As to the kind of experiment: co-IP; GFP-Trap_A beads on lysates of HEK293 cells producing GFP-eIF4E1_1, GFP-eIF4E3_A, GFP-eIF4E3_B or GFP alone; western blot with anti-eIF4G, anti-PABP, anti-GFP and anti-β-actin antibodies. In general terms: In western blotting, separated proteins are transferred to a membrane and probed.
The target of test [2] is eukaryotic translation initiation factor 4G (eIF4G1, isoform 1) (human (endogenous in HEK293)) (UniProt Q04637). As to the kind of experiment: co-IP; reverse immunoprecipitation with endogenous eIF4G as bait, GFP-eIF4E fusions as prey; data not shown.

Sequences of proteins named here, by UniProt entry; tags and fusion partners are left off. A change or cut given only in a name is not applied to a line headed by its entry.
UniProt Q8N5X7: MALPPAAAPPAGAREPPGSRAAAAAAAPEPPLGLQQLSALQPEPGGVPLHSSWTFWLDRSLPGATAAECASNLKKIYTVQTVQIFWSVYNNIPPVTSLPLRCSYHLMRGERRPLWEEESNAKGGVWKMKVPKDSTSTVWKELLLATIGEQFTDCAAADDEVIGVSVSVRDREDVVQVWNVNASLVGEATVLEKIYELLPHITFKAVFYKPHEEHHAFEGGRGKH
UniProt Q04637: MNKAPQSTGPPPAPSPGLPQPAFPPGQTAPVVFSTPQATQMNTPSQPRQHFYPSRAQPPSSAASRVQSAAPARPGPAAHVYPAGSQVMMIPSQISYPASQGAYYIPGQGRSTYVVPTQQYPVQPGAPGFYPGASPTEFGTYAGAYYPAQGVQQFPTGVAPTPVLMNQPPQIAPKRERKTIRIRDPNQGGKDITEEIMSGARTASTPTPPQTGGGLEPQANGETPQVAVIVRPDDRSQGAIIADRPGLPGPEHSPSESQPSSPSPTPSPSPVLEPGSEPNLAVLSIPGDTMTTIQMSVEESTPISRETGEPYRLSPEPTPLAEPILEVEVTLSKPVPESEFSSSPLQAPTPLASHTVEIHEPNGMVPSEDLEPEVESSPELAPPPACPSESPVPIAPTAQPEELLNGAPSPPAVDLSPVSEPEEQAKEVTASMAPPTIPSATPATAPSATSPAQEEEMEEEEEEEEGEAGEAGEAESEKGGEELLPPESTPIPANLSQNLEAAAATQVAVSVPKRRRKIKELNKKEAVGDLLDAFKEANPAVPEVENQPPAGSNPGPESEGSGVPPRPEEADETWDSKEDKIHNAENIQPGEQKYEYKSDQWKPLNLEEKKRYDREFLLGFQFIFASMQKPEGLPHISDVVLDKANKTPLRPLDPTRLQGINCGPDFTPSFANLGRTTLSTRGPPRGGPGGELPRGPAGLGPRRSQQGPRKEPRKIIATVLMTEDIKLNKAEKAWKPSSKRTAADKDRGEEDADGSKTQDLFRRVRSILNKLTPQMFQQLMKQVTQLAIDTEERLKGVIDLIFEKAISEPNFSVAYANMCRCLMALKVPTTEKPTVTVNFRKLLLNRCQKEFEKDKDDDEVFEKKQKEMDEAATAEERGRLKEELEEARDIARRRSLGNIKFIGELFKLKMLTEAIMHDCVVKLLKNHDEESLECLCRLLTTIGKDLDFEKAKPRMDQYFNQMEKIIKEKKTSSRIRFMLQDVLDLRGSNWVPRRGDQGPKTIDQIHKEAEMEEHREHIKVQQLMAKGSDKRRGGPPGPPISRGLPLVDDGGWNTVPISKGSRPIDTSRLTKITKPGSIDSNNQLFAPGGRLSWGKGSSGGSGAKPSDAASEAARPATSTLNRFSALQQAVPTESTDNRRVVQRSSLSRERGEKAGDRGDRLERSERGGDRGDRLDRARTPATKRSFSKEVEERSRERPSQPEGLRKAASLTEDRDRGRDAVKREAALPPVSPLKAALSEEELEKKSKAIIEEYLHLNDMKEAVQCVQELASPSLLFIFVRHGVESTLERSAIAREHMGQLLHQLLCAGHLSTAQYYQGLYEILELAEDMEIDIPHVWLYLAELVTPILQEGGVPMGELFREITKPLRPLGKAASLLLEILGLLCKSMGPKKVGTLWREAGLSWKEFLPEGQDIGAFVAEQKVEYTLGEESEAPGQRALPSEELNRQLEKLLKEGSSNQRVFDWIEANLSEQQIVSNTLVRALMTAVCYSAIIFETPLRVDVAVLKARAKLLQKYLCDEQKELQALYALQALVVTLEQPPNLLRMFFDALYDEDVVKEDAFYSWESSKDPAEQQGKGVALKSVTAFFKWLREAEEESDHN

Experimental findings from PMC5006505 are described below.

These are yes or no findings as the source states them, for the method shown. In cells and extracts the contact can be indirect. Some binding calls cover weakened binding; strength is not graded here.

Take “eukaryotic translation initiation factor 4G (eIF4G1, isoform 1) (from UniProt Q04637 1-1599)”: the binding entry in test [1] was “binds”.

Take “GFP-eIF4E3_A (from UniProt Q8N5X7-1 1-224)”: in test [2], the binding result is reported as “binds”.
